{"source": "the supplement of paper PMC5770031", "note": "The other results are listed elsewhere or left out. Single values are uncertain here, since repeats match poorly.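 ATM8/balancer (normal ATM) heterozygous flies were crossed on treated food; parents laid eggs 5–6 days, offspring developed ~12 days, so parents and larvae ingested compound. Readout: fraction of emerged adults homozygous for ATM8 versus 2% DMSO controls. Compounds were neutral at 10–20% homozygotes, harmful below 10%, helpful above 20%.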", "data": [{"system": "Drosophila melanogaster ATM8 (temperature-sensitive ATM allele)", "assay": "fraction of eclosed F1 progeny that are homozygous ATM8 (rescue of developmental lethality); higher = more rescue of ATM8 developmental lethality; extreme values may be limits of the assay", "details": "compound concentration applied to food 0.2 mM; 21 °C", "values": [{"molecule": "CC1(C)S[C@@H]2[C@H](NC(=O)COc3ccccc3)C(=O)N2[C@H]1C(=O)O", "fraction of eclosed F1 progeny that are homozygous ATM8": 0.125}, {"molecule": "CCCC(=O)O[C@]1(C(=O)CO)CC[C@H]2[C@@H]3CCC4=CC(=O)CC[C@]4(C)[C@H]3[C@@H](O)C[C@@]21C", "fraction of eclosed F1 progeny that are homozygous ATM8": 0.0161}, {"molecule": "COc1ccc2c3c1O[C@H]1C[C@@H](O)C=C[C@@]31CCN(C)C2", "fraction of eclosed F1 progeny that are homozygous ATM8": 0.0606}, {"molecule": "O=c1[nH]c(=O)n([C@H]2C[C@H](O)[C@@H](CO)O2)cc1C(F)(F)F", "fraction of eclosed F1 progeny that are homozygous ATM8": 0.16}, {"molecule": "Cc1nnc(SCC2=C(C(=O)O)N3C(=O)[C@@H](NC(=O)Cn4cnnn4)[C@H]3SC2)s1", "fraction of eclosed F1 progeny that are homozygous ATM8": 0.0333}, {"molecule": "NC(=O)N1c2ccccc2CC(=O)c2ccccc21", "fraction of eclosed F1 progeny that are homozygous ATM8": 0.118}, {"molecule": "c1cncc([C@@H]2CCCCN2)c1", "fraction of eclosed F1 progeny that are homozygous ATM8": 0.2}, {"molecule": "O=C(C=Cc1ccc(O)cc1)c1ccccc1O", "fraction of eclosed F1 progeny that are homozygous ATM8": 0.205}, {"molecule": "CC(C)(C#N)O[C@@H]1O[C@H](CO)[C@@H](O)[C@H](O)[C@H]1O", "fraction of eclosed F1 progeny that are homozygous ATM8": 0.0976}, {"molecule": "CC(C)Cn1cnc2c(N)nc3ccccc3c21", "fraction of eclosed F1 progeny that are homozygous ATM8": 0.05}, {"molecule": "CC(=O)O[C@H]1C(=O)[C@@]2(C)[C@H]([C@H](OC(=O)c3ccccc3)[C@]3(O)C[C@H](O)C(C)=C1C3(C)C)[C@]1(OC(C)=O)CO[C@@H]1C[C@@H]2O", "fraction of eclosed F1 progeny that are homozygous ATM8": 0.0595}, {"molecule": "O=C1N=C(O)NC1(c1ccccc1)c1ccccc1", "fraction of eclosed F1 progeny that are homozygous ATM8": 0.333}, {"molecule": "C=C(C)[C@H]1Cc2c(ccc3c(=O)c4c(oc23)COc2cc(OC)c(OC)cc2-4)O1", "fraction of eclosed F1 progeny that are homozygous ATM8": 0.266}, {"molecule": "CC[N+](CC)(CC(=O)Nc1c(C)cccc1C)Cc1ccccc1", "fraction of eclosed F1 progeny that are homozygous ATM8": 0.27}, {"molecule": "COc1cc(NS(=O)(=O)c2ccc(N)cc2)nc(OC)n1", "fraction of eclosed F1 progeny that are homozygous ATM8": 0.167}, {"molecule": "CC1(C)O[C@@H]2[C@@H](CO[C@@]3(COS(N)(=O)=O)OC(C)(C)O[C@@H]23)O1", "fraction of eclosed F1 progeny that are homozygous ATM8": 0.0816}, {"molecule": "Cc1cccc(Nc2ccncc2S(=O)(=O)NC(=O)NC(C)C)c1", "fraction of eclosed F1 progeny that are homozygous ATM8": 0.37}, {"molecule": "CC(=O)O[C@@H]1CC[C@@]2(C)C(C[C@@H](OC(C)=O)[C@@]3(C)C4=CC(=O)O[C@@H](c5ccoc5)[C@]4(C)CCC23)C1(C)C", "note": "(stereo partly drawn) [3alpha-ACETOXYDIHYDRODEOXYGEDUNIN]", "fraction of eclosed F1 progeny that are homozygous ATM8": 0.105}, {"molecule": "C=C(C)[C@H]1COc2cc3oc(=O)ccc3cc2O1", "fraction of eclosed F1 progeny that are homozygous ATM8": 0.0278}, {"molecule": "CC(C)CCC[C@@H](C)[C@H]1CC[C@H]2[C@@H]3CC[C@H]4CC(=O)CC[C@]4(C)[C@H]3CC[C@]12C", "fraction of eclosed F1 progeny that are homozygous ATM8": 0.163}, {"molecule": "CC(=O)O[C@H]1C[C@@H](O)C(C)(C)[C@@H]2C[C@@H](OC(C)=O)[C@]3(C)[C@H](CC[C@@]4(C)[C@@H](c5ccoc5)OC(=O)[C@H]5O[C@@]534)[C@@]12C", "fraction of eclosed F1 progeny that are homozygous ATM8": 0.106}]}]}
